Assay results reported in publication PMC6907089.
No constants are given. Whether binding was seen depends on the method and setting. Binding seen in cells or lysates may run through a third protein. These calls come from enrichment with a bait or labelling near it, and not all partners need be listed. For some assays here: No binding means not detected with the bait. Each block holds one binder with its values, some of them ahead of it.

Columns and labels:
Experiment in all cases: proximity labelling; BioID: MAC-tagged STING bait in stable inducible Flp-In T-REx HEK293 cells, 1 ug/ml tetracycline and 50 uM biotin for 24 h, steady state; biotinylated proteins affinity-purified and analysed by quantitative mass spectrometry; high-confidence interactors by SAINT and CRAPome; prey abundance normalised to the bait
[1] = molecular target: STING G207E with H232 (H+207E) (human)
[2] = molecular target: STING G207E with R232 (R+207E) (human)
STING R232 (human) = molecular target: STING R232 (human)

binding [1]: binds | binding [2]: no binding
B1: APMAP (adipocyte plasma membrane-associated protein) (protein, UniProt Q9HDC9 1-416)
chain: MSEADGLRQRRPLRPQVVTDDDGQAPEAKDGSSFSGRVFRVTFLMLAVSLTVPLLGAMMLLESPIDPQPLSFKEPPLLLGVLHPNTKLRQAERLFENQLVGPESIAHIGDVMFTGTADGRVVKLENGEIETIARFGSGPCKTRDDEPVCGRPLGIRAGPNGTLFVADAYKGLFEVNPWKREVKLLLSSETPIEGKNMSFVNDLTVTQDGRKIYFTDSSSKWQRRDYLLLVMEGTDDGRLLEYDTVTREVKVLLDQLRFPNGVQLSPAEDFVLVAETTMARIRRVYVSGLMKGGADLFVENMPGFPDNIRPSSSGGYWVGMSTIRPNPGFSMLDFLSERPWIKRMIFKLFSQETVMKFVPRYSLVLELSDSGAFRRSLHDPDGLVATYISEVHEHDGHLYLGSFRSPFLCRLSLQAV

binding (STING R232 (human)): binds
B2: syntaxin 5 (STX5) (protein, UniProt Q13190 1-355)
chain: MIPRKRYGSKNTDQGVYLGLSKTQVLSPATAGSSSSDIAPLPPPVTLVPPPPDTMSCRDRTQEFLSACKSLQTRQNGIQTNKPALRAVRQRSEFTLMAKRIGKDLSNTFAKLEKLTILAKRKSLFDDKAVEIEELTYIIKQDINSLNKQIAQLQDFVRAKGSQSGRHLQTHSNTIVVSLQSKLASMSNDFKSVLEVRTENLKQQRSRREQFSRAPVSALPLAPNHLGGGAVVLGAESHASKDVAIDMMDSRTSQQLQLIDEQDSYIQSRADTMQNIESTIVELGSIFQQLAHMVKEQEETIQRIDENVLGAQLDVEAAHSEILKYFQSVTSNRWLMVKIFLILIVFFIIFVVFLA

binding [2]: binds
B3: PDXD1 (pyridoxal-dependent decarboxylase domain-containing protein 1) (protein, UniProt Q6P996 1-788)
chain: MDASLEKIADPTLAEMGKNLKEAVKMLEDSQRRTEEENGKKLISGDIPGPLQGSGQDMVSILQLVQNLMHGDEDEEPQSPRIQNIGEQGHMALLGHSLGAYISTLDKEKLRKLTTRILSDTTLWLCRIFRYENGCAYFHEEEREGLAKICRLAIHSRYEDFVVDGFNVLYNKKPVIYLSAAARPGLGQYLCNQLGLPFPCLCRVPCNTVFGSQHQMDVAFLEKLIKDDIERGRLPLLLVANAGTAAVGHTDKIGRLKELCEQYGIWLHVEGVNLATLALGYVSSSVLAAAKCDSMTMTPGPWLGLPAVPAVTLYKHDDPALTLVAGLTSNKPTDKLRALPLWLSLQYLGLDGFVERIKHACQLSQRLQESLKKVNYIKILVEDELSSPVVVFRFFQELPGSDPVFKAVPVPNMTPSGVGRERHSCDALNRWLGEQLKQLVPASGLTVMDLEAEGTCLRFSPLMTAAVLGTRGEDVDQLVACIESKLPVLCCTLQLREEFKQEVEATAGLLYVDDPNWSGIGVVRYEHANDDKSSLKSDPEGENIHAGLLKKLNELESDLTFKIGPEYKSMKSCLYVGMASDNVDAAELVETIAATAREIEENSRLLENMTEVVRKGIQEAQVELQKASEERLLEEGVLRQIPVVGSVLNWFSPVQALQKGRTFNLTAGSLESTEPIYVYKAQGAGVTLPPTPSGSRTKQRLPGQKPFKRSLRGSDALSETSSVSHIEDLEKVERLSSGPEQITLEASSTEGHPGAPSPQHTDQTEAFQKGVPHPEDDHSQVEGPESLR

binding [1]: binds
B4: UBIA1 (protein, UniProt Q9Y5Z9 1-338)
chain: MAASQVLGEKINILSGETVKAGDRDPLGNDCPEQDRLPQRSWRQKCASYVLALRPWSFSASLTPVALGSALAYRSHGVLDPRLLVGCAVAVLAVHGAGNLVNTYYDFSKGIDHKKSDDRTLVDRILEPQDVVRFGVFLYTLGCVCAACLYYLSPLKLEHLALIYFGGLSGSFLYTGGIGFKYVALGDLIILITFGPLAVMFAYAIQVGSLAIFPLVYAIPLALSTEAILHSNNTRDMESDREAGIVTLAILIGPTFSYILYNTLLFLPYLVFSILATHCTISLALPLLTIPMAFSLERQFRSQAFNKLPQRTAKLNLLLGLFYVFGIILAPAGSLPKI
